Data taken from publication PMC3022811.
No constants are given. Whether binding was seen depends on the method and setting. Binding seen in cells or lysates may run through a third protein. Some binding calls cover weakened binding; strength is not graded here.

Protein sequences, listed by entry. Tags and fused reporters are not part of them.
UniProt O60583: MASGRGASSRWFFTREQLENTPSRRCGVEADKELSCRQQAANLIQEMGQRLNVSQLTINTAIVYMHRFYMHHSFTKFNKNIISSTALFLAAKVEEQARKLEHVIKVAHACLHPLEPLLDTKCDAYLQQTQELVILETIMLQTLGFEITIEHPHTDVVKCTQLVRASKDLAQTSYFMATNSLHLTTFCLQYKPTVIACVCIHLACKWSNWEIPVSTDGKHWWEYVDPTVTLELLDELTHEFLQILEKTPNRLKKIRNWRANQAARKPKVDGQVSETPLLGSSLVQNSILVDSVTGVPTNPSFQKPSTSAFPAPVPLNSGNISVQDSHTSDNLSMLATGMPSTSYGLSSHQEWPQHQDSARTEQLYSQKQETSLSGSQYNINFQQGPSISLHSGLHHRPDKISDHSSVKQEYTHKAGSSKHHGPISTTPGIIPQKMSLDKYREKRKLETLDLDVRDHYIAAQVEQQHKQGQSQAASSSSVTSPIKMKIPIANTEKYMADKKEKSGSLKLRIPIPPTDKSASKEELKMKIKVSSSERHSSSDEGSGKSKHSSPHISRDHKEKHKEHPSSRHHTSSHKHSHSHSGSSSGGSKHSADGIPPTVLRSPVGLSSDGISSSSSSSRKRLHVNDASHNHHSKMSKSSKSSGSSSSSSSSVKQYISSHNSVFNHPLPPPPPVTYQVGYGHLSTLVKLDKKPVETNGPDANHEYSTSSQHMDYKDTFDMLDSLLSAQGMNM
UniProt P78527: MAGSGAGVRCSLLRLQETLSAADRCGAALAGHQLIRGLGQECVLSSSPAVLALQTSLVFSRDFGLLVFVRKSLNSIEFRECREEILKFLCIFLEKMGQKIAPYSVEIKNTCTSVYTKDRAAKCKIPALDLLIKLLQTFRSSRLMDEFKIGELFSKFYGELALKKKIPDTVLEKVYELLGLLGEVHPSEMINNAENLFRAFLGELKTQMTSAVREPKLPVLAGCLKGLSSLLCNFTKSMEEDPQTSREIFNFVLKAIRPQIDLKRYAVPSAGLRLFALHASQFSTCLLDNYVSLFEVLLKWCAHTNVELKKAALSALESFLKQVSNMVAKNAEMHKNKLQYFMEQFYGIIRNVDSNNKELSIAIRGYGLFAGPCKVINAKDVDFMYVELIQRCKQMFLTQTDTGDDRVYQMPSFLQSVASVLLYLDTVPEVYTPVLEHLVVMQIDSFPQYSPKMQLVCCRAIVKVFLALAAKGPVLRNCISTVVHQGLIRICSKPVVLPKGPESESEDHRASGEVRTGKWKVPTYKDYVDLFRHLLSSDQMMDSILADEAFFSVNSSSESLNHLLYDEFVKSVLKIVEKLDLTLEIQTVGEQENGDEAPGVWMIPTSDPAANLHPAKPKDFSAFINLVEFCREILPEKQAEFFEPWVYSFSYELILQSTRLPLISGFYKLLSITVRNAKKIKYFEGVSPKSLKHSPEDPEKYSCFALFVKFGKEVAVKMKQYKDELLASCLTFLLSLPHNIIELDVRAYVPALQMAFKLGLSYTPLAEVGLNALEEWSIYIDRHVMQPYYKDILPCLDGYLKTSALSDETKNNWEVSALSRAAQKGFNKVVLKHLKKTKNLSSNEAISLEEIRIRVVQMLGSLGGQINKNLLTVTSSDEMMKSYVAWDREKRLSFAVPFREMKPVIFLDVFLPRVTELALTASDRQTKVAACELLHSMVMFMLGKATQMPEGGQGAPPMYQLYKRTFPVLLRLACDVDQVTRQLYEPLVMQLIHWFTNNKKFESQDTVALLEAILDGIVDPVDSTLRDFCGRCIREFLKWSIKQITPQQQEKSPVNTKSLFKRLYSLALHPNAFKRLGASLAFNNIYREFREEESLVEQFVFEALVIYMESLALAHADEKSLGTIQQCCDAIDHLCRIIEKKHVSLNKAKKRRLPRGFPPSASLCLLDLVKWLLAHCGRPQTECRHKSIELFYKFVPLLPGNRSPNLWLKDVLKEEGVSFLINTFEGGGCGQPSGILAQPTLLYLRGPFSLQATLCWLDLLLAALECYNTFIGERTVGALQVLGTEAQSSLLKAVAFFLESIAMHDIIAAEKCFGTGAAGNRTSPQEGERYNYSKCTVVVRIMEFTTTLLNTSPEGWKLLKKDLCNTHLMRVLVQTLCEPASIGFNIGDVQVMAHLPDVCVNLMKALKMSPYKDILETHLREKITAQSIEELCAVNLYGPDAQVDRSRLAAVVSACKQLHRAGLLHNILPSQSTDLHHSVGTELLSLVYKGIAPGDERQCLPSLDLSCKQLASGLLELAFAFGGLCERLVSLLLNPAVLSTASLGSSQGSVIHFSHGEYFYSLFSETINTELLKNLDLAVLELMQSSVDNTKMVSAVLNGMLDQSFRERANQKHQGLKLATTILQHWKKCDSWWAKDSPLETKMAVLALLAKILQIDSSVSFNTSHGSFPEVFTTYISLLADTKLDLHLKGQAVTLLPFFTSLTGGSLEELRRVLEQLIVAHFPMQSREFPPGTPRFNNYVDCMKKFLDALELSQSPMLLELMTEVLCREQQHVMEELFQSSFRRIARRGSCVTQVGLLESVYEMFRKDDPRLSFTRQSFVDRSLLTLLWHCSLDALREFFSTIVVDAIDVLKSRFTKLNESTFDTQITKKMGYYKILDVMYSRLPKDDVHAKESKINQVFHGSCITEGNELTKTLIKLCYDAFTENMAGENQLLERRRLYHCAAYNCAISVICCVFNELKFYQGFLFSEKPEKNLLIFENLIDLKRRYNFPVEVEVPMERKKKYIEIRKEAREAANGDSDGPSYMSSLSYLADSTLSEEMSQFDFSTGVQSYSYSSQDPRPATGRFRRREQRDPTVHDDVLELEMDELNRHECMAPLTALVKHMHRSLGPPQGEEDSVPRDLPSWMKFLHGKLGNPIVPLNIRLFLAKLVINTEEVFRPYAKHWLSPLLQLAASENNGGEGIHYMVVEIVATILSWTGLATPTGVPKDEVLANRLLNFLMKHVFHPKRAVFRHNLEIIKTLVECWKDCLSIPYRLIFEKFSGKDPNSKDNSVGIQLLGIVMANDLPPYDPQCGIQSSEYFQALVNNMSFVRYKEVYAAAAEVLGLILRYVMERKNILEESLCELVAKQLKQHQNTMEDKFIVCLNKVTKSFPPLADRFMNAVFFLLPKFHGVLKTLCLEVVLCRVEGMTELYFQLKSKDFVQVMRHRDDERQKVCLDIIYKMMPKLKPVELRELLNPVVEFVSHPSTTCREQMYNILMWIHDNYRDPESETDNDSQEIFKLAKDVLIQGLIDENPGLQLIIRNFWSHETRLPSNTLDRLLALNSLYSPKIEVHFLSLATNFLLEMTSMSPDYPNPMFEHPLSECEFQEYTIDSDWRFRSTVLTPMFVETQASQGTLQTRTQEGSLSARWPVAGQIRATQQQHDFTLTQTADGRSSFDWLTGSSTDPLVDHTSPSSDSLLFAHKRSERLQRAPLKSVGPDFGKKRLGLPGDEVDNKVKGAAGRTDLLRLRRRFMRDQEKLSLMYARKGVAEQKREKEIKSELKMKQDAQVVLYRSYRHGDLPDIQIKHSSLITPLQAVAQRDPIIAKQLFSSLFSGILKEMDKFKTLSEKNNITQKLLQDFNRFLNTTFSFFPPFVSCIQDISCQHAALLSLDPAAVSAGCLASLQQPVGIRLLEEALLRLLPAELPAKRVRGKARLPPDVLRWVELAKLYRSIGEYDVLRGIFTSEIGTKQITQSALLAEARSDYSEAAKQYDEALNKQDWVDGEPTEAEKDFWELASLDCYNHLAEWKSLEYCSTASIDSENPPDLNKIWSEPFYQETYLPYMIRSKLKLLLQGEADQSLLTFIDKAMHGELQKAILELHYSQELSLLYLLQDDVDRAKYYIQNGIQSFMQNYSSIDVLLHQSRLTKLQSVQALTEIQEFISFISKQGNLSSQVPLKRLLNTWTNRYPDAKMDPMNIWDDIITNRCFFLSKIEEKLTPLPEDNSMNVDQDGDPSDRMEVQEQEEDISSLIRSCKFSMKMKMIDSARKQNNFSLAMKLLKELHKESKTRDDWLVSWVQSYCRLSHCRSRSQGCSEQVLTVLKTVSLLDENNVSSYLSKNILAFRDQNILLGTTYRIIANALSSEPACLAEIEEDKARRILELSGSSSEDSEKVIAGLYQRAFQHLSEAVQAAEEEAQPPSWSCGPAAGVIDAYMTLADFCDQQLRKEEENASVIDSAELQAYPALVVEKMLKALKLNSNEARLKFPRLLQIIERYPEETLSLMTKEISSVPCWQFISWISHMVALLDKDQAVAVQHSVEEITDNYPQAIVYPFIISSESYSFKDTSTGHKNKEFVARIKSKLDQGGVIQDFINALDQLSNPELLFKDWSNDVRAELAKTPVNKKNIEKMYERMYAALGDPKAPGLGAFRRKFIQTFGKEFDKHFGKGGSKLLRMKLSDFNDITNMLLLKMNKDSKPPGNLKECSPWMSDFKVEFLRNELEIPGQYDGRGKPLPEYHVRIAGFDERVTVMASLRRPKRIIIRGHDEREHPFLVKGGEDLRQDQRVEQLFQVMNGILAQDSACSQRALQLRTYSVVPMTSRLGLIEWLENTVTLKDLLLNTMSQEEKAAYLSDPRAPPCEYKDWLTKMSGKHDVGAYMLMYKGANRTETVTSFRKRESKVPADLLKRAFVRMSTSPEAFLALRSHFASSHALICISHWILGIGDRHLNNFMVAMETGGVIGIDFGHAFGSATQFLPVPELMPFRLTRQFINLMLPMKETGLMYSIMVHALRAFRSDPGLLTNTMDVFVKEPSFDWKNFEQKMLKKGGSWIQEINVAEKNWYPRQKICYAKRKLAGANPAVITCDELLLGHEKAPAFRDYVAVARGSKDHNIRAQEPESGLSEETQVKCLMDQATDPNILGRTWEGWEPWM

Assays:
[1] = molecular target: cyclin T2 (human (endogenous in HeLa)) (UniProt O60583); assay: co-IP; HeLa cell extracts (50 mM Tris-HCl pH 7.5, 150 mM NaCl, 1% Nonidet P40, 0.5% sodium deoxycholate); 2 ug anti-DNA-PKcs or anti-cyclin T antibody, protein A/G-agarose, 4°C; washes with 500 mM NaCl buffer; immunoblotting; IgG as blank control
[2] = molecular target: DNA-dependent protein kinase catalytic subunit (human (endogenous in HeLa)) (UniProt P78527); assay: as above

| binding [1] | binding [2] | Substance |
| --- | --- | --- |
| binds | – | DNA-dependent protein kinase catalytic subunit (from UniProt P78527 1-4128) |
| – | binds | cyclin T2 (from UniProt O60583 1-730) |
